For five molecules, binding results are on record in article PMC7615741.

Where two headings read alike, the source gives them in different places. These are yes or no findings as the source states them, for the method shown. In cells and extracts the contact can be indirect. These calls come from enrichment with a bait or labelling near it, and not all partners need be listed.

Experiment [1] deals with T1, AtEH1-linker-TurboID (A. thaliana) (UniProt Q9LM78).
T1 sequence: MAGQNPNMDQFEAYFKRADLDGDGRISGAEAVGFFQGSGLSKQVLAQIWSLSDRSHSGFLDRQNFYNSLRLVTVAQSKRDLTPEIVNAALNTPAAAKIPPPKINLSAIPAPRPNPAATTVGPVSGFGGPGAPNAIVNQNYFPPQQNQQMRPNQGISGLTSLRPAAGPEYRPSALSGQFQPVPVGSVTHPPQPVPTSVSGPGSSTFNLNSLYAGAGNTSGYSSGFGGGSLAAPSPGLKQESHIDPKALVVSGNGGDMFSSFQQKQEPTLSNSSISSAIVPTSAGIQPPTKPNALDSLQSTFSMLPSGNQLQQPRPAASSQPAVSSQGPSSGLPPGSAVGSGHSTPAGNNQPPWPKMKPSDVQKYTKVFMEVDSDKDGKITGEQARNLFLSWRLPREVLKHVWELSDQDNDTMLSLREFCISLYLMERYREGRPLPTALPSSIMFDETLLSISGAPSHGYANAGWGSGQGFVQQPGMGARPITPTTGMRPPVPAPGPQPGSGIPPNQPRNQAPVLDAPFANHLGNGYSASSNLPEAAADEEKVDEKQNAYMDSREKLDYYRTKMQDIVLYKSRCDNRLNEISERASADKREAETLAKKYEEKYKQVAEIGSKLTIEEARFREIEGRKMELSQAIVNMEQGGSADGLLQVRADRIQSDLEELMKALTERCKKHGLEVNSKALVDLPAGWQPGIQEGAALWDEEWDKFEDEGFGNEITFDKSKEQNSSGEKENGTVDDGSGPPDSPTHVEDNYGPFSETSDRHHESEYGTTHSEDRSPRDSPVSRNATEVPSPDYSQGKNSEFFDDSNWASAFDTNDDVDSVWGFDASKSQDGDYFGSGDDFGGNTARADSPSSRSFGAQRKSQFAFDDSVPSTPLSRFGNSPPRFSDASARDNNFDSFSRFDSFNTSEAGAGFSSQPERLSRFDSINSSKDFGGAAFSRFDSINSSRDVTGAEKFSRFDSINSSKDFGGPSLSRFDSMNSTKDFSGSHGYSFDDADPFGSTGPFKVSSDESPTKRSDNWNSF
Nature of the experiment: proximity labelling; TurboID with AtEH1-linker-TurboID as bait in PSB-D A. thaliana cell suspension cultures; mass spectrometry; enrichment against a large set of TurboID experiments with unrelated baits.

Experiment [2] has as its target T1, AtEH1-linker-TurboID (A. thaliana). Described as above. This is another data set of the same source.

Auxilin-like2: in experiment [1], the binding result is “binds”.

B1: Auxilin-like1 (protein, UniProt Q9SU08 1-904)
chain: MDDFTGLLARDFGLKPQGKSAPMASQSNSSAADFNTFASSYSFATAAGKKSDSLPVFDDPGRDGDDLLFKDVFSGPPPPKYGSSSGDSRSPSAPAFDYDAMFKEPKSKSASSMPVYDKPVYDDEDVFESIPELKIPSTSSQSARFENVFSSISSSPTKHRKQNSSPFDDLMGNNLGKKGADSDREEKGSSIFDDLIPGFGRTSSPPSKRTTSETTNQSEKAPYRTAETSSNVEEDPFVVLEESESTPREPSRTDPLDDIGKFNSRKTDHSSVHGGVFVDIDPLDNLGKPGPDMNSKGKSHLRPPGNISGSQSPPVESPGSYHSKKVSFEDFLEPHNMSTPPPTNSNGSFESSDDVWLTVSEIPLFTQPTSAPPPTRPPPPRPTRPIKKKVNEPSIPTSAYHSHVPSSGRASVNSPTASQMDELDDFSIGRNQTAANGYPDPSSGEDSDVFSTAAASAAAMKDAMDKAEAKFRHAKERREKENLKASRSREGDHTENYDSRERELREKQVRLDRERAEREAEMEKAQEREKEEREREQKRIERERERLVARQAVERATREARERAATEAHAKVQRAAVGKATDARERAERAAVQRAHAEARERAAAGARDKAAKAAAEAREKAEKAAAEAKERANAEAREKETRVRAERAAVERAAAEARGRAAAQAKAKQQQENTNDLDSFFSSISRPNSAPRQRTNPLDPFQDSWNKGGSFESSRESLRVPPGQPENLRKTSSVTNIVDDLSSIFGASASQSGGFQDVDGETEERRRARLERHQRTQERAAKALAEKNERDLQVQREQVEKDRIGVTLDVEIKRWGAGKEGNLRALLSTLQYVLWPECGWQPVSLTDLITAASVKKVYRKATLCIHPDKVQQKGANLQQKYIAEKVFDMLKEAWNKFNSEELF
Turning to B1, the binding result in experiment [2] was “binds”.

B2: TOM-1LIKE (TOL) protein TOL9 (protein, UniProt Q8L860 1-675)
chain: MVNAMVERATSEMLIGPDWAMNLEICDMLNSDPAQAKDVVKGIKKRIGSRNPKAQLLALTLLETIVKNCGDMVHMHVAEKGVIHEMVRIVKKKPDFHVKEKILVLIDTWQEAFGGPRARYPQYYAGYQELLRAGAVFPQRSERSAPVFTPPQTQPLTSYPPNLRNAGPGNDVPEPSAEPEFPTLSLSEIQNAKGIMDVLAEMLSALEPGNKEDLKQEVMVDLVEQCRTYKQRVVHLVNSTSDESLLCQGLALNDDLQRVLTNYEAIASGLPGTSSQIEKPKSETGKSLVDVDGPLIDTGDSSNQANGATSSSGNGVLNQLALPAPPVTNGSANSKIDLLSGDDLALVPVGPPQPASPVASDQNALALIDMFSDNTNNPSPATAPSGNPAQNIPLNPQGHQQPNSQAGEAGLQQSNGFAPQVGYSQFEQPSYGQGVSSPWSSQPAQQPVQPSYGAQDSTAFPPPPWEAQLQDYSPSAESGSPFSPGMHPTQTAFTHAQPVNNNNPYPQIPQTGPPVNNNSPYAQMPQTGQAVANISPYPQIPQNGVYMPNQPNQALGSGYQPQQQQQQQMMMAQYYAQQQQLQQQQQQQAYGNQMGGYGYGYNQQQQGSSPYLDQQMYGLSMRDQTSHQVASSSSTTSYLPPMKPKNKPEDKLFGDLVDISKFKPTKPTSGRAGTM
With B2, the binding result in experiment [2] was “binds”.

B3: TOM-1LIKE (TOL) protein TOL6 (protein, UniProt O80910 1-671)
chain: MASSSASATVAVDKATSDLLLGPDWTTNMEICDSVNSLHWQAKDVVKAVKKRLQHKSSRVQLLALTLLETLVKNCGDYLHHQVAEKNILGEMVKIVKKKADMQVRDKILVMVDSWQQAFGGPEGKYPQYYWAYDELRRSGVEFPRRSPDASPIITPPVSHPPLRQPQGGYGVPPAGYGVHQAGYGVPQAGYGIPQAGYGVPQAGYGIPQVGYGMPSGSSRRLDEAMATEVEGLSLSSIESMRDVMDLLGDMLQAVDPSDREAVKDEVIVDLVERCRSNQKKLMQMLTSTGDDELLGRGLDLNDSLQILLAKHDAIASGSPLPVQASGSPLSVQASKPADSSPKSSEAKDSSSIAGSSSPIPATVSTGKSPIDEEYEEEEDEFAQLARRHSKPPASVTTDPTSLESHNAASNALALALPDPPPPVNTTKEQDMIDLLSITLCTPSTPPAPSSQPSPPPPAGSDQNTHIYPQPQPRFDSYVAPWAQQQQPQQPQAQQGYSQHQQHQQQQGYSQPQHSQQQQGYSQLQQPQPQQGYSQSQPQAQVQMQPSTRPQNPYEYPPPPWASTSANAYYTPRANASASYTDTSALAGRSLQQSNSFPTRAGDPQATSTASNSGVSVGQKPFVPSYRLFEDLDVFGSADGKHNKPANSSNGSQNLSGSQTQQSMIGGRKMI
Take B3: in experiment [2], the binding entry is “binds”.

B4: Med15a (protein, UniProt F4I171 1-1335)
chain: MDNNNWRPSLPNGEPAMDTGDWRTQLPPDSRQKIVNKIMETLKKHLPFSGPEGINELRRIAARFEEKIFSGALNQTDYLRKISMKMLTMETKSQNAAGSSAAIPAANNGTSIDSIPTNQGQLLPGSLSTNQSQAPQPLLSQTMQNNTASGMTGSTALPSSMPPVSSITNNNTTSVVNQNANMQNVAGMLQDSSGQHGLSSNMFSGPQRQMLGRPHAMSSQQQQQPYLYQQQLQQQLLKQNFQSGNVPNPNSLLPSHIQQQQQNVLQPNQLHSSQQPGVPTSATQPSTVNSAPLQGLHTNQQSSPQLSSQQTTQSMLRQHQSSMLRQHPQSQQASGIHQQQSSLPQQSISPLQQQPTQLMRQQAANSSGIQQKQMMGQHVVGDMQQQHQQRLLNQQNNVMNIQQQQSQQQPLQQPQQQQKQQPPAQQQLMSQQNSLQATHQNPLGTQSNVAGLQQPQQQMLNSQVGNSSLQNNQHSVHMLSQPTVGLQRTHQAGHGLYSSQGQQSQNQPSQQQMMPQLQSHHQQLGLQQQPNLLQQDVQQRLQASGQVTGSLLPPQNVVDQQRQLYQSQRTLPEMPSSSLDSTAQTESANGGDWQEEVYQKIKSMKETYLPDLNEIYQRVAAKLQQDSMPQQQRSDQLEKLRQFKTMLERMIQFLSVSKSNIMPALKDKVAYYEKQIIGFLNMHRPRKPVQQGQLPQSQMQPMQQPQSQTVQDQSHDNQTNPQMQSMSMQGAGPRAQQSSMTNMQSNVLSSRPGVSAPQQNIPSSIPASSLESGQGNTLNNGQQVAMGSMQQNTSQLVNNSSASAQSGLSTLQSNVNQPQLSSSLLQHQHLKQQQDQQMQLKQQFQQRQMQQQQLQARQQQQQQQLQARQQAAQLQQMNDMNDLTSRQGMNVSRGMFQQHSMQGQRANYPLQQLKPGAVSSPQLLQGASPQMSQHLSPQVDQKNTVNKMGTPLQPANSPFVVPSPSSTPLAPSPMQVDSEKPGSSSLSMGNIARQQATGMQGVVQSLAIGTPGISASPLLQEFTSPDGNILNSSTITSGKPSATELPIERLIRAVKSISPQALSSAVSDIGSVVSMVDRIAGSAPGNGSRASVGEDLVAMTKCRLQARNFMTQEGMMATKKMKRHTTAMPLSVASLGGSVGDNYKQFAGSETSDLESTATSDGKKARTETEHALLEEIKEINQRLIDTVVEISDDEDAADPSEVAISSIGCEGTTVRFSFIAVSLSPALKAHLSSTQMSPIQPLRLLVPCSYPNGSPSLLDKLPVETSKENEDLSSKAMARFNILLRSLSQPMSLKDIAKTWDACARAVICEYAQQFGGGTFSSKYGTWEKYVAAS
As for B4, in experiment [2], the binding entry was “binds”.
